Measured values as given in publication PMC7475253.
Results are given in words; binding and its absence hold for the method and conditions named. For some assays here: Binding seen in cells or lysates may run through a third protein. Some entries that bind do so weakly or less than the wild type. Sequences can lack the tags named with a protein.

B1: OFP1 (OVATE FAMILY PROTEIN1), yeast two-hybrid fusion (protein, UniProt Q9LZW2 1-270)
chain: MGNNYRFKLSELIPNAWFYKLRDMSKSKKKNLQSQPNSTTSKKKHHAVPTPTSTTPLSPRPPRRPSHSSKAPPSHPPRKSSGNRLRHRATVDSKSSTTSGDSTTTETGSFSPDFRSDQVLLPDESLTGSWHSPCSSKLSKTATFTPPPELELRPIITKTAATARKTAVNSPAGVRLRMRSPRISVSSSARRSGSSARRSRAVVKASVDPKRDFKESMEEMIAENKIRATKDLEELLACYLCLNSDEYHAIIINVFKQIWLDLNLPPPHSK
B2: His-OFP1 (histidine-tagged OFP1) (protein, UniProt Q9LZW2 1-270)
chain: B1 chain

Experiments:
[1] = molecular target: T1, KNAT5 (KNOTTED1-LIKE HOMEOBOX5), yeast two-hybrid fusion (Arabidopsis thaliana) (UniProt P48002); experiment: two-hybrid; Matchmaker Gold system, BD and AD fusions co-transformed into Y2HGold yeast; growth on QDO (SD/-Ade/-His/-Leu/-Trp) and QDO/AbA/X-alpha-gal, recorded after 4 d at 30 °C
T1 sequence: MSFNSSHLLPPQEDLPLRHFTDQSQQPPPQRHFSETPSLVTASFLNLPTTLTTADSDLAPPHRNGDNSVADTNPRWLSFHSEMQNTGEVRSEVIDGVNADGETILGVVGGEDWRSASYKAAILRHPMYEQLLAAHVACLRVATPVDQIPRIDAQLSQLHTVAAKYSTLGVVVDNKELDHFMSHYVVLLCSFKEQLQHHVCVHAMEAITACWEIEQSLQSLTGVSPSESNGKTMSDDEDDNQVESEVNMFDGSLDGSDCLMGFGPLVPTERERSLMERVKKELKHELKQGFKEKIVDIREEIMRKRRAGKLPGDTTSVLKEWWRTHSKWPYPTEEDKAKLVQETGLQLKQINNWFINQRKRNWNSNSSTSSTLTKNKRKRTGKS

[2] = molecular target: T2, GST-KNAT5 (Arabidopsis thaliana) (UniProt P48002); experiment: pull-down; GST-proteins held on GSH magnetic beads, incubated with His-proteins in lysis buffer (140 mM NaCl, 2.7 mM KCl, 10 mM Na2HPO4, 1.8 mM KH2PO4, pH 7.4, 1 mM PMSF) for 2 h at 4 °C; washes with 1.5% Triton X-100; immunoblot with anti-His and anti-GST; only the target purified
T2 sequence: T1 sequence

Binder | binding [1] | binding [2]
B1 | binds | 
B2 |  | binds
